# Measured values as given in PubChem BioAssay AID1662 (Broad Institute, 2009).
# In all, about 300,000 compounds went through this assay and about 4,000 (1.3%) were called active. Inconclusive means that the source gave no clear call. Such entries were picked first, then a sample of the others.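 Rule for the calls: active = mean replicate score, as percent of positive control median, at least 50; inconclusive = mean below 50 but one replicate at or above 50; inactive = mean and every replicate below 50.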
# Assay: kanamycin survival loss of SKKanGAS strain – BacTiter-Glo luminescence, streptokinase expression inhibitor project, primary screen (AID 1662);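 note: strain carries kanamycin resistance gene driven by streptokinase promoter and grows in 40 µg/ml kanamycin; loss of luminescence reflects streptokinase promoter inhibition or plain growth inhibition; 0% = median of DMSO wells and 100% = positive control at its reference dose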
# Settings: S. pyogenes SKKanGAS, kanamycin growth, 6 h, at 7.5 µM, hits give high values
row,SMILES,inhibition
1,Cc1cccc(N2CCN(C(=O)c3cc4n(n3)C(C(F)(F)F)CC(c3ccco3)N4)CC2)c1C (configuration not stated),inconclusive: 47.3%
2,O=C1c2ccc3c4c(ccc(c24)C(=O)N1c1ccc(O)cc1)C(=O)N(c1ccc(O)cc1)C3=O,inconclusive: 45.3%
3,Cc1[nH]c(C)c(S(=O)(=O)Nc2cccc(Cl)c2C)c1C(=O)N1CCCC1,inactive: 0.416%
4,COCCn1c(=NC(=O)c2ccc(S(=O)(=O)N3CCc4ccccc4C3)cc2)sc2cc(S(N)(=O)=O)ccc21,inactive: 12.9%
5,COc1ccc(NC(=O)Cc2nc3ccccc3[nH]2)cc1,inconclusive: 46.3%
6,COc1ccc(S(=O)(=O)Cc2ccc(C(=O)NCCCN(C)c3ccccc3)o2)cc1,inactive: -1.52%
7,Cc1ccc(SCc2cc(=O)[nH]c(SCC(=O)Nc3cc(Cl)ccc3Cl)n2)cc1,inconclusive: 30.6%
8,O=C(NCC1(N2CCCCC2)CCCCC1)c1cccc(NS(=O)(=O)c2ccccc2)c1,inconclusive: 33.4%
9,CC(C)NC(=S)N/N=C1\CCCCC1C1CCCCC1 (configuration not stated),inconclusive: 40.4%
10,C=CCNC(=O)c1ccccc1NC(=O)c1ccc(Cl)c(S(=O)(=O)Nc2cc(C)ccc2C)c1,inconclusive: 46.9%
11,CCc1c(C)c(C#N)c2nc3ccccc3n2c1Cl,inactive: -3.05%
12,Cc1cccc(CSC2=NCCN2S(=O)(=O)c2ccc(F)cc2)c1,inconclusive: 47.7%
13,Cc1ccccc1NC(=O)C(=O)NC(C)CCc1ccccc1 (configuration not stated),inconclusive: 26.8%
14,CCN(CC)c1ccc(/C=C/c2nc3ccccc3s2)cc1,inconclusive: 48.9%
15,CCN(CC)S(=O)(=O)c1cc(OC)ccc1N=Nc1ccc(O)c2ncccc12,active: 67.8%
16,COc1ccc(C(=O)OC2CCN(c3ncc(C(F)(F)F)cc3Cl)CC2)cc1,inconclusive: 49.2%
17,Oc1cccc2ccc(/C=C/c3ccccc3Cl)nc12,active: 98.9%
18,COC(=O)c1ccc(/C=C2\N=C(SC)SC2=O)cc1,inactive: 3.36%
19,O=C1c2ccccc2C(=O)c2c1ccc1c(=O)n(C3CCCCC3)[nH]c21,inconclusive: 19.8%
20,COc1ccc(/C=C/C(=O)OC2CCCCC2CN(C)C)cc1 (configuration not stated),inactive: -6.88%
21,COC(=O)C(Nc1ccccc1Cl)(c1cc(C)c(O)c(C)c1)C(F)(F)F (configuration not stated),active: 88.4%
22,CCCCCCCCCCn1c2c(c(=N)c3c1CCC3)CCC2,inconclusive: 49.2%

# Shown bar-delimited: entries from further up
row | SMILES | inhibition
2 | O=C1c2ccc3c4c(ccc(c24)C(=O)N1c1ccc(O)cc1)C(=O)N(c1ccc(O)cc1)C3=O | inconclusive: 45.3%
7 | Cc1ccc(SCc2cc(=O)[nH]c(SCC(=O)Nc3cc(Cl)ccc3Cl)n2)cc1 | inconclusive: 30.6%
11 | CCc1c(C)c(C#N)c2nc3ccccc3n2c1Cl | inactive: -3.05%

# (more compounds)

row,SMILES,inhibition
1,Cc1cccc(NCc2nc3ccccc3n2Cc2ccccc2)c1,inconclusive: 44.2%
2,CCc1nnc(NC(=O)c2ccc(S(=O)(=O)N(C)Cc3ccccc3)cc2)o1,inconclusive: 33.7%
3,O=C(COc1c(Cl)cccc1Cl)Nc1ccccc1N1CCCC1,inconclusive: 48%
4,Cc1ccccc1/C=C1\Sc2ccc(C(=O)N3CCN(c4ccccn4)CC3)cc2N(C)C1=O,inconclusive: 46.7%
5,Cn1c(=O)n(C)c2cc(NS(=O)(=O)c3ccccc3[N+](=O)[O-])ccc21,inconclusive: 44.5%
6,Cn1ccc(=Nc2ccc(NC(=O)c3ccc(N=c4ccn(C)c5ccc([N+](=O)[O-])cc45)cc3)cc2)cc1,active: 75.8%
7,COc1cc(OC)c(NC(=O)c2sc3ncn(CC(=O)N4CCN(c5ccccn5)CC4)c(=O)c3c2C)cc1Cl,active: 50.3%
8,Cc1noc(C)c1C(=O)Nc1nccs1,inconclusive: 38.3%
9,Cc1ccc(-c2nn(-c3ccccc3)cc2/C=N/NC(=O)CSc2nnc(C)n2-c2ccccc2)cc1,active: 54.1%
10,COc1ccccc1N1CCN(C(=O)/C=C/c2ccc(C)cc2)CC1,inconclusive: 27.6%
11,CO[C@@]1(NC(=O)Cc2cccs2)C(=O)N2C(C(=O)O)=C(COC(N)=O)CS[C@@H]21,inconclusive: 47.9%
12,COc1ccccc1C(=O)Nc1nc2ccccc2[nH]1,active: 90.3%
13,O=c1[nH]c2cc3c(cc2cc1CN(CCc1ccccc1)Cc1nnnn1CC1CCCO1)OCO3 (configuration not stated),inconclusive: 39.1%
14,C(=N\Nc1nc(Nc2ccccc2)nc(Nc2ccccc2)n1)/c1cccnc1,inconclusive: 48.8%
15,Cc1ccc(NC(=O)c2cccc(OCc3c(C)noc3C)c2)cc1S(=O)(=O)Nc1ccccc1Cl,inconclusive: 48.5%
16,Cc1n[nH]c(=O)c2c(NC(=O)CSc3nnnn3-c3ccccc3)oc(C)c12,inconclusive: 38.7%
17,CCCc1nc2ccccc2c(=O)n1/N=C/c1c(C)[nH]n(-c2ccc(C)cc2)c1=O,active: 96.6%
18,Cc1ccc(N=Cc2cc(Cc3ccccc3Cl)cc([N+](=O)[O-])c2O)c(O)c1,inconclusive: 45.3%
19,Cc1cc(C)c2nc(NNC(=O)c3ccc(S(=O)(=O)N4CCCCC4)cc3)sc2c1,inconclusive: 47.5%
20,CC(C)C(C)NC(=O)COc1ccc(Sc2ccc(OCC(=O)NC(C)C(C)C)cc2)cc1 (configuration not stated),inactive: 13.8%
21,COc1ccc(Oc2cn[nH]c2-c2ccc(OCC(=O)NN)cc2O)cc1,active: 87.5%
22,Nc1n[nH]c(C2CC2)c1N=Nc1ccc(Cl)c(Cl)c1,active: 82.4%

row,SMILES,inhibition
1,CCCn1c(C2CCCN2c2nc(-c3cccc(Br)c3)cs2)nc2cc(Cl)c(Cl)cc21 (configuration not stated),inconclusive: 47.4%
2,COc1ccc(C)cc1NC(=O)CNC(c1ccccc1)c1ccccc1,inconclusive: 48%
3,O=C(CCN1C(=O)/C(=C\c2ccccc2)SC1=S)NNC(=O)c1ccccc1O,active: 50.6%
4,O=C(N/N=C/c1ccccn1)c1ccc(Br)cc1,inactive: -2.59%
5,CCOC(=O)Nc1nnc(-c2ccccc2OC)s1,inactive: -4.92%
6,C/C(CCN1CCc2nc(-c3ccccc3)c(-c3ccccc3)cc2C1)=N\O[C@@H](C)c1cc(-c2c(C)cc(C)cc2C)no1,inactive: 7.56%
7,O=C(NCc1ccc2c(c1)OCO2)Nc1ccc(F)cc1,inconclusive: 42.5%
8,c1ccc(C2CC(c3ccccc3)n3c(nc4ccccc43)N2)cc1 (configuration not stated),inactive: -3.35%
9,COc1cc(/C=C2\CCC/C(=C\c3ccc(O)c(OC)c3)C2=O)ccc1O,active: 64.6%
10,COc1cccc(OC)c1C(=O)NC(C)C12CC3CC(CC(C3)C1)C2 (configuration not stated),inactive: 4.65%
11,COc1ccc(-c2[nH]ncc2N=Nc2cc(C)cc(C)c2)cc1,inconclusive: 44.9%
12,O=C(O)c1ccc(N/N=C/c2ccc(-c3ccc(Br)cc3)o2)cc1,inconclusive: 43.7%
13,CCn1ccnc1CNCc1cn(-c2cc(C)ccc2C)nc1-c1ccccc1,inconclusive: 28.2%
14,COc1ccccc1-n1c(SCC(=O)c2ccc(O)cc2O)nc2cc([N+](=O)[O-])ccc21,inactive: -8.22%
15,COc1ccc(-c2cc3ccc(O)cc3oc2=O)cc1,inconclusive: 5.65%
16,Cc1ccc(S(=O)(=O)N2CCCCC2)cc1NC(=O)CN1C(=O)CN(C)C1=O,inconclusive: 47.7%
17,Cc1ccc(Cl)c(OCC(=O)Nc2ccccc2N2CCCCC2)c1,inconclusive: 42.9%
18,CCN(CC)c1ccc(NC(=O)c2c(C)noc2C)cc1,inconclusive: 41.7%
19,O=C(NNC(=O)c1cc(-c2ccc(Cl)cc2Cl)nc2ccccc12)Nc1ccccc1,active: 73.7%
20,Cc1ccc(N2N=C(c3ccc(F)cc3)CC2c2ccco2)cc1 (configuration not stated),inconclusive: 46.9%
21,CC(=O)c1cccc2c(O)c(C3=Nc4ccccc4C3=O)[nH]c12,inconclusive: 45.5%
22,Cc1oc(C(=O)O)cc1COc1ccc2c(C)cc(=O)oc2c1,inactive: -3.86%

row,SMILES,inhibition
1,CCC(CC)NC(=O)Nc1ccc(F)c(Cl)c1,inactive: -9.04%
2,Cc1nc(N2CCC(C)CC2)c2c(C)c(C(=O)O)sc2n1,inconclusive: 27.9%
3,Cc1ccc2sc(NNC(=O)c3cc(=O)c4ccccc4o3)nc2c1C,active: 86%
4,CCN(CC)CCN(C(=O)C1=COCCO1)c1nc2cc(C)cc(C)c2s1,inconclusive: 41.9%
5,CC1CCN(c2nc(CN3CCCCC3)nc3scc(-c4ccccc4)c23)CC1,inconclusive: 47%
6,Cc1ccc(/C=C2\SC(=S)N(CCC(=O)NNC(=O)c3ccccc3O)C2=O)cc1,inconclusive: 43.2%
7,CC1CCCC(N2CCN(C(=O)c3cccc(F)c3)CC2)C1 (configuration not stated),inactive: -3.94%
8,FC(F)(F)c1cccc(NC(=S)N2CCCC2)c1,inconclusive: 32.4%
9,CCC(=O)OCCNc1cc(Sc2nc3ccccc3s2)c2nonc2c1[N+](=O)[O-],inconclusive: 22.7%
10,O=C(Nc1nnc(-c2ccc(Br)cc2)o1)c1ccco1,active: 93.8%
11,COc1ccc(/C(C)=N/NC(=S)NCCc2ccccc2)c(O)c1,inconclusive: 35.1%
12,Cc1cc(C)nc(NC(N)=NCCc2c[nH]c3ccccc23)n1,inconclusive: 49.2%
13,CCCc1nc2ccccc2c(C(=O)OCC(=O)Nc2ccc(S(=O)(=O)N3CCOCC3)cc2)c1CC,inconclusive: 43.5%
14,CCOC(=O)C1=C(N)Oc2ccc3ccccc3c2C1c1ccc(O)cc1 (configuration not stated),inconclusive: 47.2%
15,COc1ccc(C(=O)Cc2cc3ccccc3oc2=O)cc1,inactive: 6.2%
16,CCC[N+]1(CC#CC2(O)CCCCC2)CCOCC1,inconclusive: 25.9%
17,Cc1cc(/C=N/n2cnnc2)c(C)n1-c1ccc(OCc2ccc(Cl)cc2)cc1,active: 62%
18,c1ccc(CN2CCN(c3nc4ccccc4c4ccccc34)CC2)cc1,active: 76.4%
19,CC(NC(=O)Cn1c(=O)[nH]c2ccsc2c1=O)C12CC3CC(CC(C3)C1)C2 (configuration not stated),inconclusive: 45.2%
20,Fc1ccc(Cn2cccc2C2=NC(c3ccccc3)CO2)cc1 (configuration not stated),inconclusive: 41%
21,CCCCn1c(N)c(N(CC(C)C)C(=O)C(C)SCc2nc3sc(C)c(C)c3c(=O)[nH]2)c(=O)[nH]c1=O (configuration not stated),inactive: -0.285%

# A run of entries taken from the entries so far, for reference:
row,SMILES,inhibition
7,CC1CCCC(N2CCN(C(=O)c3cccc(F)c3)CC2)C1 (configuration not stated),inactive: -3.94%
8,FC(F)(F)c1cccc(NC(=S)N2CCCC2)c1,inconclusive: 32.4%
9,CCC(=O)OCCNc1cc(Sc2nc3ccccc3s2)c2nonc2c1[N+](=O)[O-],inconclusive: 22.7%
